In article doi:10.1101/2025.09.04.674188:
Results are given in words; binding and its absence hold for the method and conditions named. In cells and extracts the contact can be indirect. These calls come from enrichment with a bait or labelling near it, and not all partners need be listed. For part of these data: A no says only that the protein was not detected with the bait.

Amino acid sequences for entries named in this document (tags omitted). A change or cut given only in a name is not applied to a line headed by its entry.
UniProt Q9Y5X4: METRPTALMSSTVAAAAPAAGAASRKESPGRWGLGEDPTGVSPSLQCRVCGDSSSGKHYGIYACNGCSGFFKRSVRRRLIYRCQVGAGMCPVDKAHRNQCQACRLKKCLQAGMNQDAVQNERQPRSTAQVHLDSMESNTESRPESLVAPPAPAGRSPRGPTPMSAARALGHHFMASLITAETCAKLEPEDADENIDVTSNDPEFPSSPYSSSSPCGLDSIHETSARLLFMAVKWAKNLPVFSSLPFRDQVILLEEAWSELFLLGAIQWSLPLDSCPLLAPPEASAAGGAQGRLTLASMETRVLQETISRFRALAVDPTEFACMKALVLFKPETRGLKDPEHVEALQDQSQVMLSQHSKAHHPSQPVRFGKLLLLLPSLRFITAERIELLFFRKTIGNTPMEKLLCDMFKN
UniProt O95639: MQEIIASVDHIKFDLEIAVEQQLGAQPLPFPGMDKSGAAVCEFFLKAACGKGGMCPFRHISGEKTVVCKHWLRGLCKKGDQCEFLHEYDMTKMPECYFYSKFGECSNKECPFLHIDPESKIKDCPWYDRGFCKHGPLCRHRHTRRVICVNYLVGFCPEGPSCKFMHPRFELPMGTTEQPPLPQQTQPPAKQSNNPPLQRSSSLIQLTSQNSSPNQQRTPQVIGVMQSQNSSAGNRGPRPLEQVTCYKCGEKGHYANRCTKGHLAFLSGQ
UniProt Q16630: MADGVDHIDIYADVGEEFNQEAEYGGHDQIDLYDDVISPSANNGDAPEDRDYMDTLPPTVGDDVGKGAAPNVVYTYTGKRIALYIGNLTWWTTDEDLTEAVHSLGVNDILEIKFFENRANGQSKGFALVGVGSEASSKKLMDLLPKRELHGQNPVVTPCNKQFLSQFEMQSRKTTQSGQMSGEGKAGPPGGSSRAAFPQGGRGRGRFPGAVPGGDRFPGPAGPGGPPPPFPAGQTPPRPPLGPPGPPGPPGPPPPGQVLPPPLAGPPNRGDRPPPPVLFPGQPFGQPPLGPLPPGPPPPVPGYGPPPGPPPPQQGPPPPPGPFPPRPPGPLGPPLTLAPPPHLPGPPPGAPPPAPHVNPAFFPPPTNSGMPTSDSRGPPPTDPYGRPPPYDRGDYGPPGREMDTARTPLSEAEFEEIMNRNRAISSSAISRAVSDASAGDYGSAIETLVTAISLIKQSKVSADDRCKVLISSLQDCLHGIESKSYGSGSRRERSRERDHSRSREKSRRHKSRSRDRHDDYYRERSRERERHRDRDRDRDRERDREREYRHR
UniProt Q9BSM1: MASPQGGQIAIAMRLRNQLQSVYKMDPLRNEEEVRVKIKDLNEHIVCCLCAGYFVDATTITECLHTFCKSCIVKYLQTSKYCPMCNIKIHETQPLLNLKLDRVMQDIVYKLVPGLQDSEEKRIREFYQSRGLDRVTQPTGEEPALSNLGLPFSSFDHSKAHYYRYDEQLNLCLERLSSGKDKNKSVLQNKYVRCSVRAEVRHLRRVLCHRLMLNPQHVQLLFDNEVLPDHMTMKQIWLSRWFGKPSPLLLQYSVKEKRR
UniProt Q06587: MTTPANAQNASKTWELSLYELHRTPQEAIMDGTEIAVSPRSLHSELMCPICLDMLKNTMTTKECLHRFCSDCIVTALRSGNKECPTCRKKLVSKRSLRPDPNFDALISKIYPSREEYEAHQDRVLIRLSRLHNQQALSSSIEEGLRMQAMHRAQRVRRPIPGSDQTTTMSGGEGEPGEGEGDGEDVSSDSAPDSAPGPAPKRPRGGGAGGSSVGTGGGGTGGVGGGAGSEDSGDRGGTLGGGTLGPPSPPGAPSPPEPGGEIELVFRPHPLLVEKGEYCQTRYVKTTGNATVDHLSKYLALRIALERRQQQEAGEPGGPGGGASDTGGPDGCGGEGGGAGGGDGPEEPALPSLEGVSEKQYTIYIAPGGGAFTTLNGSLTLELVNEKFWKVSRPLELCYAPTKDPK
UniProt Q70CQ2: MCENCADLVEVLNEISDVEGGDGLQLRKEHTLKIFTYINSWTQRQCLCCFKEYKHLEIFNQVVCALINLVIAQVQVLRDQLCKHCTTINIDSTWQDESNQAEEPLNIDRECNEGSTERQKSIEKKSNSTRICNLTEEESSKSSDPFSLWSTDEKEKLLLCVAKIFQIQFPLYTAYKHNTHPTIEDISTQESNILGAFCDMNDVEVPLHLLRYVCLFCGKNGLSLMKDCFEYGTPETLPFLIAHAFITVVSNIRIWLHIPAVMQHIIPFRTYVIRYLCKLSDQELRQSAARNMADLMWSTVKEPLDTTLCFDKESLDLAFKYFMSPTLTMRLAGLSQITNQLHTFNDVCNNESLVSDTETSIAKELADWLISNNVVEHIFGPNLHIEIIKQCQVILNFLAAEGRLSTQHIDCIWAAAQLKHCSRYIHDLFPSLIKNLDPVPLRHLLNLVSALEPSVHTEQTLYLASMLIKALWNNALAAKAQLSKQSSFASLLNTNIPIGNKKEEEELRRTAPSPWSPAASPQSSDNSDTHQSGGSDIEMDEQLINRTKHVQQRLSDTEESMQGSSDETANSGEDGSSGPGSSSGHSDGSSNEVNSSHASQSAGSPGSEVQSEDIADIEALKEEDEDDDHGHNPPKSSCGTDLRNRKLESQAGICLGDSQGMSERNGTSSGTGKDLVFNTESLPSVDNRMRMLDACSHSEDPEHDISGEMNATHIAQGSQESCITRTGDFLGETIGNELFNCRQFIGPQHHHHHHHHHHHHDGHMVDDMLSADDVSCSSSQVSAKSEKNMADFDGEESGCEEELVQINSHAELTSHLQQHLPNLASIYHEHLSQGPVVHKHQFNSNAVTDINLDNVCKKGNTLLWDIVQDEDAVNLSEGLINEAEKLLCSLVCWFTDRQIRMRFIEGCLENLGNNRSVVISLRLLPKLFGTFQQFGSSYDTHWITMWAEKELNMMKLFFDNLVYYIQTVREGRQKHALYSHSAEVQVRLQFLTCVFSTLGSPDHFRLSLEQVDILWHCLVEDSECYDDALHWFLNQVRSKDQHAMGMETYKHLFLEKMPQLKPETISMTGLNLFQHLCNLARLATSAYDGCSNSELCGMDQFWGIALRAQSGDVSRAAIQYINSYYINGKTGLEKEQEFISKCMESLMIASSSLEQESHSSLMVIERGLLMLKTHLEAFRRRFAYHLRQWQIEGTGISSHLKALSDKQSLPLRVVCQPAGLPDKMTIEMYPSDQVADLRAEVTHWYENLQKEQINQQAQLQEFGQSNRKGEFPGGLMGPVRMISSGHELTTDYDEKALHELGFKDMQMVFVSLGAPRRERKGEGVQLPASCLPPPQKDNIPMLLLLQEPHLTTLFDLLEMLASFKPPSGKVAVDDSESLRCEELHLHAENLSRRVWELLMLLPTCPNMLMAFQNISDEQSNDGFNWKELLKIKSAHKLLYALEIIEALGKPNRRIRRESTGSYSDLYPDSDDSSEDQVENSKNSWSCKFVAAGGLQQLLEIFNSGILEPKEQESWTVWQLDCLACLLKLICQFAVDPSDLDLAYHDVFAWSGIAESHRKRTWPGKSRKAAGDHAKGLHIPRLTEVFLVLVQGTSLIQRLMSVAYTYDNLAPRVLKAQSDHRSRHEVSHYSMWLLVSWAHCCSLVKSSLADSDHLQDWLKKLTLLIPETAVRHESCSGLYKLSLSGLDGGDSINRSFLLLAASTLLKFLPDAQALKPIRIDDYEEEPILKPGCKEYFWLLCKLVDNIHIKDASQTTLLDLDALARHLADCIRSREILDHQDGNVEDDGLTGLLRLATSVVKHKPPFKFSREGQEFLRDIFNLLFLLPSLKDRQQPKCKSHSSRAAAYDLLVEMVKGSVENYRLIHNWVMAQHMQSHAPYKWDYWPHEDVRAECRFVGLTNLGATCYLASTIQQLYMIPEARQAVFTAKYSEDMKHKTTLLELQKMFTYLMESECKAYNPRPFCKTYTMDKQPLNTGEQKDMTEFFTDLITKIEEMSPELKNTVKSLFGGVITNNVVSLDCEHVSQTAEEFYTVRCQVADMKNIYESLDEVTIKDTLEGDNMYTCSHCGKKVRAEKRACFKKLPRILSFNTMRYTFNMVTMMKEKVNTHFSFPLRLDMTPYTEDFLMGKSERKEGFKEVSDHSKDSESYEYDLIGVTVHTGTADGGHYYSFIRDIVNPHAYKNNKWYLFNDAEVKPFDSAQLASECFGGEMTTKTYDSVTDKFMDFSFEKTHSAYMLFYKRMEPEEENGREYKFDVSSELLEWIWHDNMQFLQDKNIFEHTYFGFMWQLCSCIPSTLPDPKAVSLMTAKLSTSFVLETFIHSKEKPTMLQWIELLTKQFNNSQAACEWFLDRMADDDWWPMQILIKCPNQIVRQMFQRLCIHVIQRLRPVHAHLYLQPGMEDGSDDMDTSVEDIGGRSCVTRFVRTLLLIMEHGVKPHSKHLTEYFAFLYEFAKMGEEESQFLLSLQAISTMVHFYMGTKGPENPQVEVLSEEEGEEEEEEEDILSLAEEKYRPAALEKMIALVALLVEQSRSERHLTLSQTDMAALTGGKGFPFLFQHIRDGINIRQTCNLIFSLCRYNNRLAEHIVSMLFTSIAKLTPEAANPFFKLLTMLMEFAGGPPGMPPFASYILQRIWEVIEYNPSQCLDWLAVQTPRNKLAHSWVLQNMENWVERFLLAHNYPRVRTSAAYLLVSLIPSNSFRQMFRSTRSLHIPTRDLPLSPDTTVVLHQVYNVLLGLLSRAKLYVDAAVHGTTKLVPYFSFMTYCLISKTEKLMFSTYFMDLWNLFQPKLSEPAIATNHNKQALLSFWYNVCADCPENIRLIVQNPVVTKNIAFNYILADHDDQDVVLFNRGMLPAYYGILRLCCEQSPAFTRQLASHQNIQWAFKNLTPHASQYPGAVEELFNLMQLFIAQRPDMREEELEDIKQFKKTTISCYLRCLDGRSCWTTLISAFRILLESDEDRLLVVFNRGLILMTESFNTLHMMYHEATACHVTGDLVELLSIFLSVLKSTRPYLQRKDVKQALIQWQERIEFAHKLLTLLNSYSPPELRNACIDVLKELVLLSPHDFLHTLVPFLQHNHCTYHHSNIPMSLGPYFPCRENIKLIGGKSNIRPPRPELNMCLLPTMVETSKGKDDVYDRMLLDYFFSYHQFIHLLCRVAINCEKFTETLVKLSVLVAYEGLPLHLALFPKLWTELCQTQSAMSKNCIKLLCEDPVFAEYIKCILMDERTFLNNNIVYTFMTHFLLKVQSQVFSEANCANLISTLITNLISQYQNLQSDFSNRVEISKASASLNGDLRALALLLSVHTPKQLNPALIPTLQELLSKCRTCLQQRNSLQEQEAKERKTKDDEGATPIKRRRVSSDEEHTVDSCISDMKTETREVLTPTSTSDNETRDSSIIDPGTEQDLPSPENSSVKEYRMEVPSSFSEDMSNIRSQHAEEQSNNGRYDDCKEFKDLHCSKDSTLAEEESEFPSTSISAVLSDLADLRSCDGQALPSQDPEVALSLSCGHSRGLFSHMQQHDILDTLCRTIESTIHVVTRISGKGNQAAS
UniProt O15379: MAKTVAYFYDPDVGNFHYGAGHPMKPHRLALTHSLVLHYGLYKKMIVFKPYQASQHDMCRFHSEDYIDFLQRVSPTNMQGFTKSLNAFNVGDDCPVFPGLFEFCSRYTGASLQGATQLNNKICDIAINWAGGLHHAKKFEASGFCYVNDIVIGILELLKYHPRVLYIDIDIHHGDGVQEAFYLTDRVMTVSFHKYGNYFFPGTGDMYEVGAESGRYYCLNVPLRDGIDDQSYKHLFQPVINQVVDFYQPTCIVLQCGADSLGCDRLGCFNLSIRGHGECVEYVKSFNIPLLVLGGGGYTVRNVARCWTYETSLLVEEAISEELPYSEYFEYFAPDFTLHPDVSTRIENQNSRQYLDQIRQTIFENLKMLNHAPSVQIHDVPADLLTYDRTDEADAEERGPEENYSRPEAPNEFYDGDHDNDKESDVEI
UniProt Q86SE9: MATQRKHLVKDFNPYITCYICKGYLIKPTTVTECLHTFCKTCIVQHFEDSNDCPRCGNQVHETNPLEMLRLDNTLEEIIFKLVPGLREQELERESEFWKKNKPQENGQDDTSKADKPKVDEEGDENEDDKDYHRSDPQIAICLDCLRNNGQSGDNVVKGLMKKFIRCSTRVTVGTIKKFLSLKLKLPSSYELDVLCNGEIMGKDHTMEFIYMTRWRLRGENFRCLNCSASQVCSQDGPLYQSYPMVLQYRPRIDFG

What was measured:
[1] = target: G56R-NR2E3-MUTT2A-TurboID (human) (UniProt Q9Y5X4); experiment: proximity labelling
[2] = target: NR2E3-MUTT2A-TurboID (human) (UniProt Q9Y5X4); experiment: proximity labelling

Substance | binding [1] | binding [2]
CPSF4 (from UniProt O95639 1-269) |  | binds
CPSF6 (from UniProt Q16630 1-551) |  | binds
PCGF1 (from UniProt Q9BSM1 1-259) |  | binds
RING1 (from UniProt Q06587 1-406) |  | binds
USP34 (from UniProt Q70CQ2 1-3546) |  | binds
class I histone deacetylase HDAC3 (from UniProt O15379 1-428) | binds | binds

The remaining lines, values ahead:

binding [1] | binding [2] | Substance
binds | no binding | Bcl-6 co-repressor (BCOR) (from UniProt Q6W2J9 1-1755)
 | binds | PCGF5 (from UniProt Q86SE9 1-256)
binds | binds | nuclear receptor corepressor 1 (from UniProt O75376 1-2440)
